Laboratory results: patent US20210123036A1
No constants are given. Whether binding was seen depends on the method and setting. In cells and extracts the contact can be indirect. Some binding calls cover weakened binding; strength is not graded here.

By UniProt entry, the sequences of proteins in these tests, tags left out. Where a name states a change or a piece, a line headed by the entry shows the natural chain unless it says otherwise.
UniProt P02453: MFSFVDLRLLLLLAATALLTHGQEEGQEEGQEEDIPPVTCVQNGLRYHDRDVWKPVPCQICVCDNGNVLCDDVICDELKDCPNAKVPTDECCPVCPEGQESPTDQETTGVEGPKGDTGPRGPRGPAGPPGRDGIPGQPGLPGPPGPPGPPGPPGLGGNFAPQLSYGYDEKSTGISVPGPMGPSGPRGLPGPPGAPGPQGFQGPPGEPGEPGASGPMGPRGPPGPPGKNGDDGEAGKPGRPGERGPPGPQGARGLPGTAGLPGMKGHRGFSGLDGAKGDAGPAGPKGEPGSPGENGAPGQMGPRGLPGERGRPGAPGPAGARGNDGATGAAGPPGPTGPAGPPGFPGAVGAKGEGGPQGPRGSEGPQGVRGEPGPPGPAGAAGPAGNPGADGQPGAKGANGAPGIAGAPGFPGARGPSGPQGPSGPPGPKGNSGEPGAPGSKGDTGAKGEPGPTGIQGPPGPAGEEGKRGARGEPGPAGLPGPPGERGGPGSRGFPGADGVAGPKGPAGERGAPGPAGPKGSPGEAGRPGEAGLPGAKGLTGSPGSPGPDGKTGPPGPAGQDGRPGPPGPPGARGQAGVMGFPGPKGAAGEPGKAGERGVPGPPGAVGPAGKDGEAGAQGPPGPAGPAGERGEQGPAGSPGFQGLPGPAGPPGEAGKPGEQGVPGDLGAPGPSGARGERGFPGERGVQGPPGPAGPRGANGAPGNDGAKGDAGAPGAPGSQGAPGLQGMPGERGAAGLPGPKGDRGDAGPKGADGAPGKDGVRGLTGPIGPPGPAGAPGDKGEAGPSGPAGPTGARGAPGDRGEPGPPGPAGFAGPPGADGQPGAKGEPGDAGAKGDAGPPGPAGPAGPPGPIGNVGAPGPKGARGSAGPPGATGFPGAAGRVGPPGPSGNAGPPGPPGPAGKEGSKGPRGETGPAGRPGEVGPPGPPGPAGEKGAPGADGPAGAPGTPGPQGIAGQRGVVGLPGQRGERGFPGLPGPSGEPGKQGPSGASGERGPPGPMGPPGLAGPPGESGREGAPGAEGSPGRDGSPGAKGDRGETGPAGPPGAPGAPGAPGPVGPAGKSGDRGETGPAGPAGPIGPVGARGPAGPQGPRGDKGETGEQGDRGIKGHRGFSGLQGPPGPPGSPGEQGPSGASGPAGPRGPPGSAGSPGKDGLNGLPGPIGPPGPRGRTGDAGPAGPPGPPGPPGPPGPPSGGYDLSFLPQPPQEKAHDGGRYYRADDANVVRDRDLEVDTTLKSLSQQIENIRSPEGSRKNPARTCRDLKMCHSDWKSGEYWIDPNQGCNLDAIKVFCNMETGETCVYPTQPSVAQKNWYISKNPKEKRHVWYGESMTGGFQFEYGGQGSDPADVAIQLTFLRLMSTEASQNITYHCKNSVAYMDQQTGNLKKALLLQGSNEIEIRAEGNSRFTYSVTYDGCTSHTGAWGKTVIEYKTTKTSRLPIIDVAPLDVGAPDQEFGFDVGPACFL
UniProt P02465: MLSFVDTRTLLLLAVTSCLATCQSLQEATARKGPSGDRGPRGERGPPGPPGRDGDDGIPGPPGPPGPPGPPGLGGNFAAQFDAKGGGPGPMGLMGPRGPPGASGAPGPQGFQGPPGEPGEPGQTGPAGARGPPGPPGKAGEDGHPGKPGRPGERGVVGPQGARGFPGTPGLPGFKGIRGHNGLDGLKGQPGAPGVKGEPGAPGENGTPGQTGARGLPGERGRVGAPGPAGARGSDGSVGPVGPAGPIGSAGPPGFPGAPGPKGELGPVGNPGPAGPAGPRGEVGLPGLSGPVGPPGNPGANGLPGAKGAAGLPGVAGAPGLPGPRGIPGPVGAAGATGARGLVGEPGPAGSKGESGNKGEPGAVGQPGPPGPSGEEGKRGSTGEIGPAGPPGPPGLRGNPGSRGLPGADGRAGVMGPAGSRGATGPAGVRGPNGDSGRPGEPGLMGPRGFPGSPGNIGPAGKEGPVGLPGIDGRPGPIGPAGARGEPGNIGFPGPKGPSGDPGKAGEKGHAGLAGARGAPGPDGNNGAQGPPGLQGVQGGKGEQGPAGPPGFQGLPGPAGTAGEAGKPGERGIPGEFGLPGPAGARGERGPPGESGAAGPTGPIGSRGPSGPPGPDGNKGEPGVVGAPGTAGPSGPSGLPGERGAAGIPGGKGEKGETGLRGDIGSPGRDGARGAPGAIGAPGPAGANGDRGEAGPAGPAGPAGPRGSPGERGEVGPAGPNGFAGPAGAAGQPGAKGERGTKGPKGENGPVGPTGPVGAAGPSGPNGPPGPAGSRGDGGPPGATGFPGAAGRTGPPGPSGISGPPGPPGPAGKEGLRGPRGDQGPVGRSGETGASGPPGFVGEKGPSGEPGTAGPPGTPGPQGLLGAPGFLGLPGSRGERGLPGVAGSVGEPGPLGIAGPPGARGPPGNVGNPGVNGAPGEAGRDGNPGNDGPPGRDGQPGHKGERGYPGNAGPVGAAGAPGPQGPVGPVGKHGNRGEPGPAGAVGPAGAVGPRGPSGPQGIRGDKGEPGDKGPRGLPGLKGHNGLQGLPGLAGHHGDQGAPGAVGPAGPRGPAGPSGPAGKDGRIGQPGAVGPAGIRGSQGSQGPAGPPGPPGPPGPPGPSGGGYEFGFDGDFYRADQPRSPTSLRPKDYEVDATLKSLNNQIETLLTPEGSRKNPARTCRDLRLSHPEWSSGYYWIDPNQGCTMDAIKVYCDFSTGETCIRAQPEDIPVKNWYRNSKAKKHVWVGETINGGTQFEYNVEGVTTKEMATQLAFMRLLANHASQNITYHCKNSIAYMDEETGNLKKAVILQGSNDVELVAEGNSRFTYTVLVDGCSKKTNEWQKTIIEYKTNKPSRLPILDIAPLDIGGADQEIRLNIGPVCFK

Target: Gelatin sepharose (bovine skin Type I collagen gelatin) (bovine) (UniProt P02453+P02465)
Test: gelatin sepharose pull-down, SDS-PAGE

B1: peptide 333 comprising three modules corresponding to module 3 of the CBD of MMP-2 (designed binder)
chain: EGQVVSTVYGNSEGAPCVFPFTFLGNKYESCTSAGRSDGFLWCATTANYDDDRKWGFCPHEALFTMGGNSEGAPCVFPFTFLGNKYESCTSAGRSDGKRWCATTANYDDDRKWGFCPETAMSTVGGNSEGAPCVFPFTFLGNKYESCTSAGRSDGKMWCATTANYDDDRKWGFCPDQGYSL
For B1, the binding was “binds”.
